Data reported in patent US20200164029A1 (ACCELERON PHARMA, published 2020).
Results are given in words; binding and its absence hold for the method and conditions named. Some entries that bind do so weakly or less than the wild type. Each block holds one binder with its values, some of them ahead of it.

Chains of the proteins cited; added tags and fusions are not shown. Residues count along the entry.
UniProt P37023, residues 22-118: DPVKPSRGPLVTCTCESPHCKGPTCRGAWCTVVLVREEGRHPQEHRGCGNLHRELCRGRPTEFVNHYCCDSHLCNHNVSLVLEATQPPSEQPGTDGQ

B2: human BMP-9 (ligand, UniProt Q9UK05 320-429, looked up)
chain: SAGAGSHCQKTSLRVNFEDIGWDSWIIAPKEYEAYECKGGCFFPLADDVTPTKHAIVQTLVHLKFPTKVGKACCVPTKLSPISVLYKDDMGVPTLKYHYEGMSVAECGCR
notes: also called hBMP-9
B3: human BMP-10 (ligand, UniProt O95393 317-424, looked up)
chain: NAKGNYCKRTPLYIDFKEIGWDSWIIAPPGYEAYECRGVCNYPLAEHLTPTKHAIIQALVHLKNSQKASKACCVPTKLEPISILYLDKGVVTYKFKYEGMAVSECGCR
notes: also called hBMP-10

Experiments:
human BMP-10 = biological target: B3; test: SPR (Biacore), captured construct, ligand at 0.5 nM; ++++ = KD<1 nM
human BMP-9 = biological target: B2; test: as above
ALK1-hFc (human) [1] = biological target: ALK1-hFc (human) (UniProt P37023); test: SPR, ALK1-hFc captured, 10 nM BMP-9 without hENG(26-586)
ALK1-hFc (human) [2] = biological target: ALK1-hFc (human) (UniProt P37023); test: SPR, ALK1-hFc captured, 10 nM BMP-10 without hENG(26-586)

binding (human BMP-10): binds
binding (human BMP-9): binds
B1: mENG(27-581)-hFc (R&D Systems, catalog #1320-EN) (Fc fusion, not shown: a dimerising Fc or GST)
chain: ERVGCDLQPVDPTRGEVTFTTSQVSEGCVAQAANAVREVHVLFLDFPGMLSHLELTLQASKQNGTETREVFLVLVSNKNVFVKFQAPEIPLHLAYDSSLVIFQGQPRVNITVLPSLTSRKQILDWAATKGAITSIAALDDPQSIVLQLGQDPKAPFLCLPEAHKDMGATLEWQPRAQTPVQSCRLEGVSGHKEAYILRILPGSEAGPRTVTVMMELSCTSGDAILILHGPPYVSWFIDINHSMQILTTGEYSVKIFPGSKVKGVELPDTPQGLIAEARKLNASIVTSFVELPLVSNVSLRASSCGGVFQTTPAPVVTTPPKDTCSPVLLMSLIQPKCGNQVMTLALNKKHVQTLQCTITGLTFWDSSCQAEDTDDHLVLSSAYSSCGMKVTAHVVSNEVIISFPSGSPPLRKKVQCIDMDSLSFQLGLYLSPHFLQASNTIELGQQAFVQVSVSPLTSEVTVQLDSCHLDLGPEGDMVELIQSRTAKGSCVTLLSPSPEGDPRFSFLLRVYMVPTPTAGTLSCNLALRPSTLSQEVYKTVSMRLNVVSPDLSGKGIEGRMD

Binder: B2
binding (ALK1-hFc (human) [1]): binds

Binder: B3
binding (ALK1-hFc (human) [2]): binds
